Assay results reported in US4565804A, “GnRH Antagonists VI” (The Salk Institute For Biological Studies, priority 1984, dated 1986).
At least one peptide structure holds a part that was inferred or is arguable (an end, a ring closure or a residue). Square brackets hold non-standard residues; d marks the D form. Side chains are listed from the residue outwards. Peptide text beside a SMILES is read from it. dPhe(4-F) = N[C@H](Cc1ccc(F)cc1)C(=O)O; d2Nal = N[C@H](Cc1ccc2ccccc2c1)C(=O)O

Tested on: ovulation in female rats
Assay: in vivo assay of effectiveness to prevent ovulation in female rats
Set-up: species or system Sprague-Dawley rats
Conditions: 1 ug dose, subcutaneous in corn oil, about noon on the day of proestrus

CC(=O)N[C@@H](CCCNC(=N)N)C(=O)N[C@@H](CCCNC(=N)N)C(=O)N[C@@H](CCCNC(=N)N)C(=O)NCCCC[C@@H](NC(=O)[C@H](Cc1ccc(O)cc1)NC(=O)[C@H](CO)NC(=O)[C@@H](Cc1c[nH]c2ccccc12)NC(=O)[C@@H](Cc1ccc(F)cc1)NC(=O)[C@@H](Cc1ccc2ccccc2c1)NC(C)=O)C(=O)N[C@@H](CC(C)C)C(=O)N[C@@H](CCCNC(=N)N)C(=O)N1CCC[C@H]1C(=O)NCC(N)=O [Peptide 1, Ac-β-D-2NAL-(4F)D-Phe-D-Trp-Ser-Tyr-D-Lys(Arg3 -Ac)-Leu-Arg-Pro-Gly-NH2] (Ac-[d2Nal][dPhe(4-F)][dW]SY[dK]([Arg-Arg-Arg-Ac])LRPG-NH2) was tested, and the “number of treated rats which ovulate” value was “no rats out of 7”.
